Test results: patent publication US5416073A (The Adminstrators of the Tulane Educational Fund, priority 1985, dated 1995)
HELM strings list residues between dots; [ac] is acetyl, [am] amide, other brackets name non-standard units.

Test: general procedure: Boc solid-phase peptide synthesis; Benzhydrylamine polystyrene resin (Bachem)
Settings: whole synthesis

Row | Substance | isolated mass (scale 0.25 mmole) | isolated mass (scale 0.25 mmol, run 1) | isolated mass (scale 0.25 mmol, run 2)
1 | PEPTIDE1{H.[dA].D.A.I.F.T.N.S.Y.R.K.V.L.G.Q.L.S.A.R.K.L.L.Q.D.I.[Nle].S.R.[am]}$$$$V2.0 | 23 mg |  | 
2 | PEPTIDE1{Y.A.D.A.I.F.T.N.S.[dY].R.K.V.L.G.Q.L.S.A.R.K.L.L.Q.D.I.M.S.R.[am]}$$$$V2.0 |  | 32 mg | 75 mg
3 | PEPTIDE1{Y.A.[dD].A.I.F.T.[dN].S.Y.R.K.V.L.G.Q.L.S.A.R.K.L.L.Q.D.I.[Nle].S.R.[am]}$$$$V2.0 | 114 mg |  | 
4 | PEPTIDE1{Y.[dA].D.A.I.F.T.N.S.Y.R.K.V.L.G.Q.L.S.A.R.K.L.L.Q.D.I.[Nle].S.R.[am]}$$$$V2.0 | 71 mg |  | 
5 | PEPTIDE1{Y.[dA].D.A.I.F.T.[dN].S.Y.R.K.V.L.G.Q.L.S.A.R.K.L.L.Q.D.I.[Nle].S.R.[am]}$$$$V2.0 | 41 mg |  | 
6 | PEPTIDE1{Y.[dA].[dD].A.I.F.T.[dN].S.Y.R.K.V.L.G.Q.L.S.A.R.K.L.L.Q.D.I.[Nle].S.R.[am]}$$$$V2.0 | 67 mg |  | 
